Experimental data reported in publication PMC10298087.
Residue numbers refer to the chain shown, from its start. Results are given in words; binding and its absence hold for the method and conditions named. Binding seen in cells or lysates may run through a third protein. A result given as binding can be weak or reduced; the word gives no strength. Tags and fused reporters may be left off the sequences shown.

Experiments:
[1] = molecular target: T1, HA-tagged human TRIM28-K304Q (human) (UniProt Q13263); test: co-IP; HA-tagged human TRIM28 (WT, K304Q, K304R) and Gal4^DBD-KRAB in K562 cells; anti-HA agarose; whole-cell extract buffer with 300 mM NaCl, 0.1% Triton X-100, 4 °C
T1 sequence: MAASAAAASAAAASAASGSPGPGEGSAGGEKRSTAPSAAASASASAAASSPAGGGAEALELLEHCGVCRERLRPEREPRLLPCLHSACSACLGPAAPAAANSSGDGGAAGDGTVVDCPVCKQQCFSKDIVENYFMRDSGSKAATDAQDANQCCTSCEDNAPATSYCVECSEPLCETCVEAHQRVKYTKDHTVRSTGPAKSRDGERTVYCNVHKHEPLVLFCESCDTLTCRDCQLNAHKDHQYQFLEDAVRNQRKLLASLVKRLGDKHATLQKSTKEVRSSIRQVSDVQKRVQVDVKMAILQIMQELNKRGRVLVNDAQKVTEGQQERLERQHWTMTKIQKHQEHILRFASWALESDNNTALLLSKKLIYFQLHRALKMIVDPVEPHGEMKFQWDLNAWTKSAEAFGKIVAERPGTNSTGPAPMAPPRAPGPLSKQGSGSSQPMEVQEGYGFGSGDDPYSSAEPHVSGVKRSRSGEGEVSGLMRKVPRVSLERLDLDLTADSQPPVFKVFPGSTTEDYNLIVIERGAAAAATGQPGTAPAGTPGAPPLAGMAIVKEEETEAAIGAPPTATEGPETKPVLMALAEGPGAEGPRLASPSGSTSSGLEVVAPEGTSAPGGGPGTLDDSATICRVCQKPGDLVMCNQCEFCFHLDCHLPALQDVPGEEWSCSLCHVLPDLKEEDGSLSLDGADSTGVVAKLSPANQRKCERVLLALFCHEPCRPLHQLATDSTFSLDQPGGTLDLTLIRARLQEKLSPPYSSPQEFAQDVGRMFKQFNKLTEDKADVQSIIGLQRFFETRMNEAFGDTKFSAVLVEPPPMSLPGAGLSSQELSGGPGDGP

[2] = molecular target: T2, HA-tagged human TRIM28-K304R (human) (UniProt Q13263); test: as above
T2 sequence: T1 sequence with Q304R

For “Gal4 DNA-binding domain (Gal4^DBD)-KRAB (domain or fragment)”, the binding [1] was “binds weakly” and the binding [2] was “binds”.
